From the supplement of paper PMC4862054
Most values lie at the level of the controls, where differences are scatter.

Tests used:
Assay in all cases: normalised response (% of control), CellTox Green; higher = less cell death (100 = DMSO, 0 = benzethonium chloride kill control)
Details in all cases: incubation time: 72 h
BT-474 = tested on: BT-474
Experimental: (§1)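 DSRT, 72 h incubation, CellTox Green / CellTiter-Glo readout. Signal is normalised to DMSO and benzethonium chloride controls. Value is the normalised response at dose 2.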

MFM-223 = tested on: MFM-223
Experimental: as §1

HCC1937 = tested on: HCC1937
Experimental: as §1

BT-549 = tested on: BT-549
Experimental: as §1

CAL-51 = tested on: CAL-51
Experimental: as §1

HCC1143 = tested on: HCC1143
Experimental: as §1

HCC1599 = tested on: HCC1599
Experimental: as §1

MDA-MB-436 = tested on: MDA-MB-436
Experimental: as §1

Hs578T = tested on: Hs578T
Experimental: as §1

DU-4475 = tested on: DU-4475
Experimental: as §1

CAL-120 = tested on: CAL-120
Experimental: as §1

CAL-85-1 = tested on: CAL-85-1
Experimental: as §1

CAL-148 = tested on: CAL-148
Experimental: as §1

HDQ-P1 = tested on: HDQ-P1
Experimental: as §1

MDA-MB-468 = tested on: MDA-MB-468
Experimental: as §1

MDA-MB-231 = tested on: MDA-MB-231
Experimental: as §1

MDA-MB-453 = tested on: MDA-MB-453
Experimental: as §1

MCF-10A = tested on: MCF-10A
Experimental: as §1

`O=C(O)CCCc1ccc(N(CCCl)CCCl)cc1` [Chlorambucil] (10 nM) was tested, and the normalised response (BT-474) was 102%, the normalised response (MFM-223) was 101% and the normalised response (HCC1937) was 94.6%. For the same compound, the normalised response (BT-549) was 98.3%, the normalised response (CAL-51) was 97.2% and the normalised response (HCC1143) was 114%. For the same compound, the normalised response (HCC1599) was 97.2%, the normalised response (MDA-MB-436) was 92% and the normalised response (Hs578T) was 58.4%. For the same compound, the normalised response (DU-4475) was 95.2%, the normalised response (CAL-120) was 93.6% and the normalised response (CAL-85-1) was 97.2%. For the same compound, the normalised response (CAL-148) was 72.5%, the normalised response (HDQ-P1) was 98.4% and the normalised response (MDA-MB-468) was 70.5%. It also gave a normalised response (MDA-MB-231) of 105% and a normalised response (MDA-MB-453) of 68.2%.

In the case of `Nc1nc(Cl)nc2c1ncn2[C@H]1C[C@H](O)[C@@H](CO)O1` [Cladribine] (1 nM), the normalised response (BT-474) is reported as 102%, the normalised response (MFM-223) is reported as 100% and the normalised response (HCC1937) is reported as 100%. The normalised response (BT-549) was 98.2%, the normalised response (CAL-51) was 98.6% and the normalised response (HCC1599) was 96.5%. The normalised response (MDA-MB-436) was 92.5%, the normalised response (Hs578T) was 116% and the normalised response (DU-4475) was 97.4%. For the same compound, the normalised response (MCF-10A) was 106%, the normalised response (CAL-120) was 99.2% and the normalised response (CAL-85-1) was 99.9%. It also gave a normalised response (CAL-148) of 98.8%, a normalised response (HDQ-P1) of 113% and a normalised response (MDA-MB-468) of 100%. The normalised response (MDA-MB-231) was 108% and the normalised response (MDA-MB-453) was 99.8%.

`Cn1c(=O)n(-c2ccc(C(C)(C)C#N)cc2)c2c3cc(-c4cnc5ccccc5c4)ccc3ncc21` [Dactolisib] (1 nM) gave a normalised response (BT-474) of 103%, a normalised response (MFM-223) of 104% and a normalised response (BT-549) of 105%. For the same compound, the normalised response (CAL-51) was 97.7%, the normalised response (HCC1143) was 90.2% and the normalised response (HCC1599) was 117%. It also gave a normalised response (MDA-MB-436) of 106%, a normalised response (Hs578T) of 121% and a normalised response (DU-4475) of 115%. The normalised response (MCF-10A) was 77.4%, the normalised response (CAL-120) was 108% and the normalised response (CAL-85-1) was 93.5%. For the same compound, the normalised response (CAL-148) was 83.3%, the normalised response (HDQ-P1) was 65.9% and the normalised response (MDA-MB-468) was 66.3%. It also gave a normalised response (MDA-MB-231) of 104% and a normalised response (MDA-MB-453) of 111%.

For `CS(=O)(=O)CCNCc1ccc(-c2ccc3ncnc(Nc4ccc(OCc5cccc(F)c5)c(Cl)c4)c3c2)o1` [Lapatinib] (1 nM), the normalised response (BT-474) was 101%, the normalised response (MFM-223) was 101% and the normalised response (HCC1937) was 114%. It also gave a normalised response (BT-549) of 95.3%, a normalised response (CAL-51) of 88.9% and a normalised response (HCC1599) of 109%. The normalised response (MDA-MB-436) was 78%, the normalised response (Hs578T) was 68.7% and the normalised response (DU-4475) was 104%. The normalised response (MCF-10A) was 114%, the normalised response (CAL-120) was 102% and the normalised response (CAL-85-1) was 91.4%. For the same compound, the normalised response (CAL-148) was 106%, the normalised response (HDQ-P1) was 121% and the normalised response (MDA-MB-468) was 78.3%. The normalised response (MDA-MB-453) was 104%.

In the case of `C[C@]1(O)C[C@@H](c2nc(-c3ccc4ccc(-c5ccccc5)nc4c3)c3c(N)nccn32)C1` [Linsitinib] (10 nM), the normalised response (BT-474) is reported as 101%, the normalised response (MFM-223) is reported as 96.1% and the normalised response (HCC1937) is reported as 96.7%. It also gave a normalised response (BT-549) of 101%, a normalised response (CAL-51) of 84.6% and a normalised response (HCC1143) of 108%. The normalised response (HCC1599) was 99.5%, the normalised response (MDA-MB-436) was 93.9% and the normalised response (DU-4475) was 97.9%. It also gave a normalised response (CAL-120) of 96.7%, a normalised response (CAL-85-1) of 96.9% and a normalised response (CAL-148) of 101%. For the same compound, the normalised response (HDQ-P1) was 110%, the normalised response (MDA-MB-468) was 68.9% and the normalised response (MDA-MB-231) was 82.8%. The normalised response (MDA-MB-453) was 100%.

With `N[C@@H](Cc1ccc(N(CCCl)CCCl)cc1)C(=O)O` [Melphalan] (12.5 nM) the normalised response (BT-474) was 95.8%, the normalised response (MFM-223) was 105% and the normalised response (HCC1937) was 59.3%. It also gave a normalised response (BT-549) of 109%, a normalised response (CAL-51) of 94% and a normalised response (HCC1599) of 75.2%. For the same compound, the normalised response (MDA-MB-436) was 98.9%, the normalised response (Hs578T) was 129% and the normalised response (DU-4475) was 95%. For the same compound, the normalised response (MCF-10A) was 101%, the normalised response (CAL-120) was 100% and the normalised response (CAL-85-1) was 103%. For the same compound, the normalised response (CAL-148) was 108%, the normalised response (HDQ-P1) was 110% and the normalised response (MDA-MB-468) was 94.6%. It also gave a normalised response (MDA-MB-231) of 111% and a normalised response (MDA-MB-453) of 98.5%.

With `CC(=O)Nc1ccc(C(=O)Nc2ccccc2N)cc1` [Tacedinaline] (1 nM) the normalised response (BT-474) was 83.3%, the normalised response (MFM-223) was 89.4% and the normalised response (HCC1937) was 54.5%. It also gave a normalised response (BT-549) of 97.3%, a normalised response (CAL-51) of 111% and a normalised response (HCC1143) of 65.4%. It also gave a normalised response (HCC1599) of 98.1%, a normalised response (Hs578T) of 115% and a normalised response (DU-4475) of 100%. It also gave a normalised response (MCF-10A) of 94.5%, a normalised response (CAL-120) of 103% and a normalised response (CAL-85-1) of 99.2%. The normalised response (CAL-148) was 103%, the normalised response (HDQ-P1) was 105% and the normalised response (MDA-MB-468) was 112%. For the same compound, the normalised response (MDA-MB-231) was 103% and the normalised response (MDA-MB-453) was 99.7%.

Compound `CCc1c(C(=O)C(N)=O)c2c(OCC(=O)O)cccc2n1Cc1ccccc1` [Varespladib] (10 nM) has a normalised response (BT-474) of 103%, a normalised response (MFM-223) of 103% and a normalised response (BT-549) of 83.1%. For the same compound, the normalised response (CAL-51) was 113%, the normalised response (HCC1143) was 113% and the normalised response (HCC1599) was 102%. For the same compound, the normalised response (MDA-MB-436) was 92.7%, the normalised response (Hs578T) was 119% and the normalised response (DU-4475) was 95.7%. It also gave a normalised response (CAL-120) of 99.5%, a normalised response (CAL-85-1) of 103% and a normalised response (CAL-148) of 105%. The normalised response (HDQ-P1) was 111%, the normalised response (MDA-MB-468) was 107% and the normalised response (MDA-MB-231) was 118%. It also gave a normalised response (MDA-MB-453) of 97.9%.
